Assay results published in PubChem BioAssay AID2685 (National Center for Advancing Translational Sciences (NCATS), 2010).
This is one part of the list. Further columns of the screen follow, without active or inactive calls. Most of these compounds were active or inconclusive in the main read-out, so they are no random draw. Potencies come from curve fits of mixed quality, noted in brackets.

Experiment: qHTS Assay for Lipid Storage Modulators in Drosophila S3 Cells;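 as to cell number change: cells counted by Cell Tracker Red CMTPX staining in the red channel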
Details: BODIPY lipid droplet fluorescence, 18-24 h; for cell number change: measured here: cell count max response, cells fed with added oleic acid
Procedure, shortened: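 Drosophila S3 cells loaded with oleic acid (400 uM, as added) and compounds at several concentrations; lipid droplets imaged by 488-nm laser-scanning cytometry, 500–530 nm intensity and object ratio to cell channel. Percent activity normalized to 20 uM Triacsin C.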

[1] = measured here: lipid fluorescence (Fed channel) AC50, cells fed with added oleic acid
[2] = measured here: cell number channel AC50, cells fed with added oleic acid

## O=C(CCC1CCCN(C(=O)CCC(F)(F)F)C1)NCc1ccc(F)c(F)c1 (configuration not stated)
  cell number change: -7.07%
[1]
  AC50: 651 nM [rising, full curve]

## Nn1c(-c2cccs2)nc2sc3c(c2c1=O)CCCC3
  cell number change: -25.7%
[1]
  AC50: 3660 nM [rising, single point]

## O=C(CN1C(=O)NC2(CCCC2)C1=O)N1CCN(S(=O)(=O)c2ccccc2[N+](=O)[O-])CC1
  cell number change: 1.39%
[1]
  AC50: 3260 nM [falling, single point]

## CC(C)c1ccccc1NC(=S)NC1CCN(Cc2ccccc2)CC1
[1]
  AC50: 206 nM [rising, full curve, poor fit]

## Cc1ncc([N+](=O)[O-])n1CC(=O)Nc1ccc(F)c(Cl)c1
  cell number change: 0.945%
[1]
  AC50: 29100 nM [rising, single point]

## COc1ccc(C(=O)NCC(=O)Nc2ccccc2)cc1OC
  cell number change: 49.1%
[2]
  AC50: 29100 nM [rising, single point]
[1]
  AC50: 29100 nM [rising, single point]

## CCc1ccc(NC(=O)CSc2nc3c(c(=O)n(C)c(=O)n3C)n2C)cc1
[1]
  AC50: 1300 nM [rising, full curve, poor fit]

## CSc1nnc(CCNC(=O)OC(C)(C)C)o1
  cell number change: 8.07%
[2]
  AC50: 411 nM [falling, full curve]

## Cc1c(CCC(=O)O)c(=O)n2c([nH]c3ccccc32)c1C#N
  cell number change: -45.4%
[2]
  AC50: 103 nM [falling, full curve, poor fit]
[1]
  AC50: 2910 nM [falling, full curve]

## COc1ccc2cc3c(N)nn(C(=O)Cc4ccccc4OC)c3nc2c1
[2]
  AC50: 326 nM [rising, full curve]
[1]
  AC50: 291 nM [rising, full curve]

## COCc1c(C(=O)Nc2ccc(Cl)cc2F)oc2ccccc12
  cell number change: 2.32%
[1]
  AC50: 4110 nM [rising, single point]

## O=C(NCc1ccco1)C1CC(c2cccc([N+](=O)[O-])c2)=NO1 (configuration not stated)
  cell number change: 8.06%
[1]
  AC50: 29100 nM [rising, single point]

## O=C(NC(=S)Nc1ccc2oc(=O)ccc2c1)c1cccc(Cl)c1
  cell number change: 16.1%
[1]
  AC50: 731 nM [falling, single point]

## COc1cc(NC(=O)N[C@H](C(=O)O)C(C)C)cc(OC)c1
[1]
  AC50: 1300 nM [falling, full curve]

## CC(=O)Nc1ccc(-c2cc(C(=O)O)c3ccc(C)cc3n2)cc1
  cell number change: -3.93%

## COc1ccc(CNc2nc(-c3ccccc3)nn2C(=O)c2cccs2)cc1
[2]
  AC50: 651 nM [rising, partial curve, poor fit]
[1]
  AC50: 1840 nM [rising, partial curve]

## CC(=O)c1cccc(N(CC(=O)NC2CCCCC2)C(=O)Cn2nnc(-c3ccccc3)n2)c1
  cell number change: -19.2%
[2]
  AC50: 7310 nM [falling, single point]
[1]
  AC50: 4.11 nM [falling, full curve, poor fit]

## Cc1ccc(C(=O)NCC(=O)N(C)Cc2cccc(F)c2)s1
  cell number change: 150%
[2]
  AC50: 18400 nM [rising, single point]
[1]
  AC50: 5170 nM [rising, full curve]

## Cc1ccc(C)c(NC(=O)COC(=O)c2cccc3c2C(=O)c2ccccc2C3=O)c1
  cell number change: 25.8%
[1]
  AC50: 820 nM [rising, full curve]

## CC(=O)N1CCOc2ccc(S(=O)(=O)N3CCC(C)CC3)cc21
  cell number change: 11.3%
[1]
  AC50: 130 nM [falling, full curve, poor fit]

## C[C@H](NC(=O)c1nc[nH]c1C(=O)NC1CCN(C(=O)OC(C)(C)C)CC1)C(=O)OC(C)(C)C
  cell number change: -25.4%
[1]
  AC50: 820 nM [falling, full curve, poor fit]

## COc1ccc(CCC(=O)O)c(O)c1
  cell number change: -15.4%
[1]
  AC50: 3660 nM [falling, full curve]

## O=C(Nc1ccc(N2CCN(c3ncccc3C(F)(F)F)CC2)nc1)c1cccs1
  cell number change: -53.8%
[2]
  AC50: 29100 nM [falling, single point]
[1]
  AC50: 29100 nM [falling, single point]

## CCc1ccc2[nH]c(=O)c(CN(Cc3ccco3)C(=S)NCC3CCCO3)cc2c1 (configuration not stated)
  cell number change: 6.66%
[1]
  AC50: 4.11 nM [rising, full curve, poor fit]

## Cc1ccc(S(=O)(=O)N2CCN(C(=O)COC(=O)CSc3ccccc3)CC2)c(C)c1
  cell number change: -0.962%
[1]
  AC50: 16400 nM [rising, single point]

## CCOc1ccc2[nH]c(=O)c(C(c3nnnn3CC3CCCO3)N3CCc4ccccc4C3)cc2c1 (configuration not stated)
  cell number change: 18.7%
[2]
  AC50: 231 nM [rising, full curve, poor fit]

## O=[N+]([O-])c1cc(S(=O)(=O)N2CCOCC2)ccc1N1CCCC1
  cell number change: -29.1%
[1]
  AC50: 5800 nM [falling, full curve]

## CCOc1nnnc2c1sc1nc(N3CCOCC3)c3c(c12)CCCC3
  cell number change: 67%
[2]
  AC50: 2910 nM [rising, partial curve]
[1]
  AC50: 4110 nM [rising, partial curve]

## O=C(c1cc(C(=O)N2CCOCC2)c2nc3ccccc3n2c1)c1ccccc1O
  cell number change: 10.2%
[2]
  AC50: 11.6 nM [rising, full curve, poor fit]
[1]
  AC50: 6510 nM [rising, single point]

## CC#CCN1c2ccccc2[C@]23C[C@@H](C(=O)OC)N(C(=O)c4cc(C)oc4C)C2=NC(C(=O)OC)=C(C(=O)OC)[C@H]13
  cell number change: -71.5%
[2]
  AC50: 820 nM [falling, full curve]
[1]
  AC50: 1030 nM [falling, full curve]

## CC(NC(=O)Cn1c(=O)oc2cc(S(=O)(=O)N3CCCC3)ccc21)c1ccccc1 (configuration not stated)
  cell number change: 46.6%

## COc1cc(C(=O)Nc2cccc(S(=O)(=O)NCc3ccco3)c2)cc(OC)c1OC
  cell number change: 23.9%
[1]
  AC50: 259 nM [rising, full curve, poor fit]

## O=C(COc1cccc(Br)c1)Nc1ccc(N2CCOCC2)cc1N1CCOCC1
  cell number change: 7.67%
[2]
  AC50: 92 nM [falling, full curve]
[1]
  AC50: 92 nM [falling, full curve]

## COc1ccccc1CNC(=O)CSc1nc(-c2ccccc2)cn1N
  cell number change: -4.21%
[1]
  AC50: 580 nM [rising, single point]
